# From PubChem BioAssay AID1671190 (National Center for Advancing Translational Sciences (NCATS), 2021)
# Protein sequences, listed by entry. Tags and fused reporters are not part of them.
# UniProt P18054, whole entry, looked up: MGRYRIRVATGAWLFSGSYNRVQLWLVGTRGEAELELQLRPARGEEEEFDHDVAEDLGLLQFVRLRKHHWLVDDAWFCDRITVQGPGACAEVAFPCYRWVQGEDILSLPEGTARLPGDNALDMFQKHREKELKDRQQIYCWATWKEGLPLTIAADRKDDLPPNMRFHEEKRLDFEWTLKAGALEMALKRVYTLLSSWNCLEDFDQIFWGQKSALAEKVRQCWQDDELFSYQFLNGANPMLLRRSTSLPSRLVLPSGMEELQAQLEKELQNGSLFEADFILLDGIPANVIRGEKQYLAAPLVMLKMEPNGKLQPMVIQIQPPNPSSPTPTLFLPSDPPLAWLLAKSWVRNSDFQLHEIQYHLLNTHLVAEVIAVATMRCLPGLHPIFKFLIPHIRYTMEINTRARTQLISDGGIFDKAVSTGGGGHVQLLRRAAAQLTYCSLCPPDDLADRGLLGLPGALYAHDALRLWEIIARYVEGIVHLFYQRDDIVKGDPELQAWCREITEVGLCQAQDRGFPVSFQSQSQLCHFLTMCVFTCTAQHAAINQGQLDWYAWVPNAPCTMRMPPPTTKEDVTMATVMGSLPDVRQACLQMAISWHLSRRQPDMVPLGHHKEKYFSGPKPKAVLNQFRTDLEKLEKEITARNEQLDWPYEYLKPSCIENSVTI
# Hit rate of the full screen: of about 580,000 compounds, about 6,100 (1.1%) were called active. Not shown: some 15% with an inconclusive outcome. Calls follow the shape of the dose curve; as a rule, active = well fitted inhibition curve with a large enough effect; inconclusive = small, poorly fitted or top-dose-only effect, or another doubt; inactive = no such curve, though single readings can be large or run the other way. This is a selection; strong and weak results do not stand in their true shares. Where no call is shown, the source filed none.
# Biological target: Polyunsaturated fatty acid lipoxygenase ALOX12 (Homo sapiens) (UniProt P18054)
# Assay: Primary qHTS assay for inhibitors of human arachidonate 12S-lipoxygenase (ALOX12): Round 2
# Conditions: purified 12hLO, xylenol orange hydroperoxide absorbance; activity change, negative = inhibition: at 0.00344 µM (top of the series) unless noted
# How it was run: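 Purified human 12hLO (150 nM final) in 25 mM Hepes, 0.01% Triton X-100, pH 7.0 was preincubated 15 min at room temperature with compound. Then 40 uM arachidonic acid was added, 30 min. Hydroperoxide was read by Fe-XO absorbance ratio 573/405 nm.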
# % is scaled to controls: 0 for no effect and ±100 for the full control effect; potency is read from the fitted curve at half-maximal effect.
Structure (SMILES),Potency,"activity change, negative = inhibition"
Oc1ccc(Nc2ccc3ccccc3c2)cc1,active: 44.7 µM,
CCOC(=O)C(C)(C)Oc1ccc(Cl)cc1,,50.5%
O=C1CCCc2c(O)cccc21,,3.02%
CO[C@@]1(NC(=O)CSCC#N)C(=O)N2C(C(=O)O)=C(CSc3nnnn3C)CS[C@@H]21,,17.1%
CCCCOCCOC(=O)c1cccnc1,,2.98%
C[C@]12CC[C@@H]3c4ccc(O)cc4CC[C@H]3[C@@H]1CC[C@@H]2OC(=O)CCC1CCCC1,,-5.12%
CCC(Cc1c(I)cc(I)c(N)c1I)C(=O)O (stereo not drawn),,0.658%
CN(C)c1ccc(O)c2c1C[C@H]1C[C@H]3[C@H](N(C)C)C(=O)C(C(N)=O)=C(O)[C@@]3(O)C(=O)C1=C2O,,-21.9%
CCOC(=O)c1cccnc1,,14.5%
Brc1c(NC2=NCCN2)ccc2nccnc12,,16.7%
Cc1ccc2c(Cl)cc(Cl)c(O)c2n1,,20.4%
CC[N+](CC)(CC)CCCOC(=O)C1(c2ccccc2)CCCC1,active: 20 µM,
O=C(OCc1ccccc1)c1ccccc1,,0.407%
CCOc1ccc(-n2c(C)cc(/C=C3/C(=N)N4C(=NC3=O)SN=C4S(C)(=O)=O)c2C)cc1,active: 35.5 µM,
CN1CCN(CCC(=O)N2c3ccccc3Sc3ccc(C(F)(F)F)cc32)CC1,,8.58%
CC1(C)S[C@@H]2[C@H](NC(=O)C(c3ccccc3)S(=O)(=O)O)C(=O)N2[C@H]1C(=O)O (stereo partly drawn),,-13.4%
CC(=NNC(=S)N1CCCCC1)c1ccccn1,active: 44.7 µM,
Cc1cccc(CSc2nnc(CCNC(=O)OC(C)(C)C)o2)c1,active: 7.94 µM,
CN(C)CC[C@@H](c1ccc(Cl)cc1)c1ccccn1,,-11.8%
CC(C)C(C#CCN1CCCCC1)(c1ccccc1)c1ccccc1,active: 20 µM,
CCc1ccc(-c2c(C)sc(N)c2C#N)cc1,active: 28.2 µM,
Cn1c([N+](=O)[O-])cnc1COC(N)=O,,-1.95%

# 5 entries from above, tab-delimited:
Structure (SMILES)	Potency	activity change, negative = inhibition
CN1CCN(CCC(=O)N2c3ccccc3Sc3ccc(C(F)(F)F)cc32)CC1		8.58%
CC1(C)S[C@@H]2[C@H](NC(=O)C(c3ccccc3)S(=O)(=O)O)C(=O)N2[C@H]1C(=O)O (stereo partly drawn)		-13.4%
CC(=NNC(=S)N1CCCCC1)c1ccccn1	active: 44.7 µM	
Cc1cccc(CSc2nnc(CCNC(=O)OC(C)(C)C)o2)c1	active: 7.94 µM	
CN(C)CC[C@@H](c1ccc(Cl)cc1)c1ccccn1		-11.8%

# Continued.

Structure (SMILES),Potency,"activity change, negative = inhibition"
O=C(CSc1nc2cc([N+](=O)[O-])ccc2o1)Nc1ccc(Cl)cc1,active: 22.4 µM,
COc1ccc(C(=O)NCc2ccc(OCCN(C)C)cc2)cc1OC,,23.7%
CCCCCCCCCCCCCCCC[n+]1ccccc1,,18.1%
CC(C)(C)c1ccc(-c2cc(C[C@H]3CNCC[C@H]3CC(=O)NCc3cccs3)no2)cc1,active: 39.8 µM,
Cc1ccc(-n2sc3ccccc3c2=O)cc1,active: 1.12 µM,
O=C(O)c1cn(C2CC2)c2cc(Cl)c(F)cc2c1=O,,-7.72%
O=S(c1cc(Cl)cc(Cl)c1O)c1cc(Cl)cc(Cl)c1O,,-22.7%
CCc1cccc2c3c([nH]c12)C(CC)(CC(=O)O)OCC3 (stereo not drawn),,4.73%
COc1ccc(C)cc1Nc1n[n+](-c2ccccc2)c(-c2ccc(C(=O)O)cc2)s1,active: 17.8 µM,
CC(C)(C)c1ccc(C(=O)CCCCl)cc1,,-20.5%
O=C(OCCN1CCOCC1)c1cccnc1Nc1cccc(C(F)(F)F)c1,,-14.4%
OCCOCCN1CCN(C(c2ccccc2)c2ccc(Cl)cc2)CC1 (stereo not drawn),,23.7%
Cc1cc(CCCOc2c(C)cc(-c3noc(C(F)(F)F)n3)cc2C)on1,,-4.08%
O=C(Nc1cnc(N2CCC(N3CCCCC3)CC2)c(C(=O)O)c1)c1ccc(Br)cc1,active: 39.8 µM,
CC(C)COC(=O)c1ccc(N)cc1,,0.0104%
CC[C@H](NC(C)C)[C@H](O)c1ccc(O)c2[nH]c(=O)ccc12,,-28%
O=C(CSc1nc2ccccc2s1)Nc1ccc(F)c(F)c1,active: 35.5 µM,
Cc1cnc(NS(=O)(=O)c2ccc(N)cc2)nc1,,22.5%
O=C(c1ccc(C(F)(F)F)cc1)N1CCC(c2nn(-c3ccc(F)cc3)c(=O)[nH]2)CC1,active: 22.4 µM,
COc1cc(C(=O)NC2CCCNC2)cc(OC)c1OC (stereo not drawn),,22.6%
CCCC(=O)O[C@]1(C(=O)CC)CC[C@H]2[C@@H]3CCC4=CC(=O)CC[C@]4(C)[C@H]3[C@@H](O)C[C@@]21C,,-33.6%
CC(=O)OCC1=C(C(=O)O)N2C(=O)[C@@H](NC(=O)CSc3ccncc3)[C@H]2SC1,,7.43%

Structure (SMILES),Potency,"activity change, negative = inhibition"
O=C1OC(c2ccccc2)(c2cc(Br)ccc2O)c2ccccc21 (stereo not drawn),active: 44.7 µM,
CCCCCCCC/C=C\CCCCCCCC(=O)NCCc1ccc(O)c(O)c1,active: 5.62 µM,
O=C(O)CCC(=O)Nc1ccc(S(=O)(=O)Nc2nccs2)cc1,,-33.7%
CC1=C[C@@H](CNCc2ccccc2O)[C@H](C(C)C)C[C@H]1Cc1nc2c(C)cccc2[nH]1,active: 63.1 µM,
COc1ccc(C(=O)N2CCN(CC(=O)N3CCOCC3)CC2)cc1,,27.5%
O=C1Cc2cc(Cl)ccc2N1,,31.7%
CCOC(=O)C1=C[C@]2(CC)CCCN3CCc4c(n1c1ccccc41)[C@@H]32,,59.6%
Cc1ccc(OC2(C(=O)N3CCCC3c3nccs3)CCNCC2)cc1 (stereo not drawn),active: 17.8 µM,
CC(C)CCCC(C)CCCC(C)CCCCC(C)CCCC(C)CCCC(C)C (stereo not drawn),,10.8%
O=c1[nH]c2ccc(Br)cc2c(-c2ccccc2)c1CN1CCCCC1,active: 22.4 µM,
CCc1cccc2c(CCO)c[nH]c12,,-17.5%
COc1ccc(Cc2n[nH]c(=S)n2CC(C)C)cc1,active: 14.1 µM,
Cc1ccc(S(=O)(=O)/N=C2/NC(=O)/C(=C/c3ccc(Br)o3)S2)cc1,active: 1 µM,
COc1ccc(CNC(=S)NCc2ccc(Cl)cc2)cc1OC,active: 50.1 µM,
c1ccc2[nH]c(-c3cscn3)nc2c1,,12.1%
CCCC(=O)Nc1ccc2nc(N3CCN(C(=O)OCC)CC3)cc(C(=O)O)c2c1,active: 7.94 µM,
CC(C)(C)C(=O)OCC1CCC[N+]2(C)CCCCC12 (stereo not drawn),active: 28.2 µM,
CC(C)C[C@H]1CNC(=S)N1C[C@H]1CCCN1C[C@H](Cc1ccccc1)N1C[C@H](Cc2ccc(O)cc2)N(CC2CCCCCC2)C1=S,active: 39.8 µM,
CNCCC(Oc1ccc(C(F)(F)F)cc1)c1ccccc1 (stereo not drawn),,22.3%
C[C@@H](CN1CC(=O)NC(=O)C1)N1CC(=O)NC(=O)C1,,-12.1%
CC(=O)Nc1ccc(CC(=O)O)cc1,,-20.5%
CC(=O)OCC(=O)[C@@]12N=C(C)O[C@@H]1C[C@H]1[C@@H]3CCC4=CC(=O)C=C[C@]4(C)[C@H]3[C@@H](O)C[C@@]12C,,20.9%

Structure (SMILES),Potency,"activity change, negative = inhibition"
O=C(c1cc(O)c(O)c(O)c1)c1ccc(O)c(O)c1O,,-28.8%
CCN1CC(CCN2CCOCC2)C(c2ccccc2)(c2ccccc2)C1=O (stereo not drawn),,-22.9%
C[C@H]1[C@H](NC(=O)/C(=N/OC(C)(C)C(=O)O)c2csc(N)n2)C(=O)N1S(=O)(=O)O (stereo in doubt),,10.2%
COc1ccc2nc(NC(=O)Nc3ccccc3)sc2c1,,13.6%
CCOC(=O)OC(C)OC1=C(C(=O)Nc2ccccn2)N(C)S(=O)(=O)c2ccccc21 (stereo not drawn),,38.1%
COC(=O)c1cc(-c2ccco2)nc2c(Cl)cccc12,active: 22.4 µM,
CCCCNC(=O)NS(=O)(=O)c1ccc(C)cc1,,0.828%
Cc1cc(O)cc2c1O[C@](C)(CCC[C@H](C)CCC[C@H](C)CCCC(C)C)CC2,,-23%
COC(=O)c1c(C)[nH]c(-c2csc(NC3CC3)n2)c1C,active: 31.6 µM,
CCOc1ccccc1OCCN[C@H](C)Cc1ccc(OC)c(S(N)(=O)=O)c1,,-29.2%
O=S(=O)(O)CCS,,0.572%
CCn1cc(C(=O)O)c(=O)c2cnc(N3CCCC3)nc21,,17.6% [at 0.000995 µM]
CCOc1ccc(-c2nc(=S)[nH][nH]2)cc1,active: 25.1 µM,
CC1(C)NC(=O)N(c2ccc([N+](=O)[O-])c(C(F)(F)F)c2)C1=O,,-6.88%
O=C(O)c1ccccc1-c1ccc(C(F)(F)F)cc1,,-4.78%
Cc1c(C)n(CCN(C)C)c2ccc(C(=O)OCCN(C)C)cc12,,-13.8%
CCCCCCCCCCCCSCCOCCO,,25.8%
Cc1nc2n(c(=O)c1CCN1CCC(C(=O)c3ccc(F)cc3)CC1)CCS2,,-13.4%
CN(C)C(=O)Oc1cccc([N+](C)(C)C)c1,,-11.6%
N#C/C(=C/c1ccc(O)c(O)c1)c1nc2ccccc2[nH]1,active: 7.94 µM,
O=C(Oc1cccc2cccnc12)c1ccccc1,,-7.54%
O=c1[nH]cnc2[nH]ncc12,,-2.49%

Structure (SMILES),Potency,"activity change, negative = inhibition"
Clc1ccc(C2C=C(c3ccccc3)Nc3nnnn32)c(Cl)c1 (stereo not drawn),active: 17.8 µM,
CCCCCCCCCCC(CO)CCCCCCCC (stereo not drawn),,0.912%
CCCC(=O)OCOC(=O)C1=C(C)NC(C)=C(C(=O)OC)C1c1cccc(Cl)c1Cl (stereo not drawn),,-13%
CN(C/C=C/C#CC(C)(C)C)Cc1cccc2ccccc12,,25.2%
FC1(F)C(F)(F)C(F)(F)C2(F)C(F)(F)C(F)(F)C(F)(F)C(F)(F)C2(F)C1(F)F (stereo not drawn),,47.1%
O=C1OC(/C=C/c2ccc(Cl)cc2Cl)=NC/1=C\c1cccs1,active: 35.5 µM,
O=C1Nc2ccccc2C1(c1ccc(O)cc1)c1ccc(O)cc1,,4.18%
NC(=O)COCCN1CCN(C(c2ccccc2)c2ccc(Cl)cc2)CC1 (stereo not drawn),,25.2%
CNC(=O)Oc1ccc2c(c1)[C@]1(C)CCN(C)[C@@H]1N2C,,-3.76%
CCN=C(N/N=C/c1ccc([N+](=O)[O-])cc1)SC,active: 31.6 µM,
O=[N+]([O-])c1ccc(/C=N\O)o1,,-27.4%
COc1ccc2c(c1)CCCC2=O,,1.28%
CC(O)CCCCn1c(=O)c2c(ncn2C)n(C)c1=O (stereo not drawn),,-3.26%
N[C@@H](CSSC[C@H](N)C(=O)O)C(=O)O,,-25.6% [at 37.5 pM]
CC(C)=CCC1C(=O)N(c2ccccc2)N(c2ccccc2)C1=O,,-5.72%
CCOc1ccccc1OCc1nn2c(C3COc4ccccc4O3)nnc2s1 (stereo not drawn),active: 7.08 µM,
Cc1cccc(OCC(O)CNC(C)(C)C)c1C (stereo not drawn),,23.8%
COc1ccc2nc(/C(C#N)=C\c3ccco3)[nH]c2c1,active: 39.8 µM,
CCOC(=O)Nc1ccc(NCc2ccc(F)cc2)nc1N,,15.8%
Cc1coc2ccccc2c1=O,,-32%
